Measured values reported in PMC12752627, “Discovery of a Potent and Selective TEAD Degrader with Durable Degradation Activity” (Advanced Science, 2025).
Further values from the same series stand in other lists.

System: 867 cancer cell lines
Assay: PRISM assay (barcoded cell line screening, 5 days);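 note: top test concentration 10 mM in eight-point dilution series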
Format: cell-based
Set-up: scale not given here
Description: The principle of the PRISM assay has been described elsewhere and was conducted as previously outlined by the PRISM team at the Broad Institute.^[ [14], [31] ^] In PRISM (MTS027) experiments, KG‐FP‐003 was tested across 867 different cancer cell lines. Cells were treated with eight concentration gradients, ranging from 4.6 nM to […], in triplicate dilutions over a period of five days. Each plate was treated with 20 µM bortezomib as a positive control and DMSO as a negative control. Three replicate experiments were performed for each compound. The resulting data were analyzed using GraphPad PRISM 9.5.

SMILES: CNC(=O)c1cc2c(c(F)c1-c1c(Cl)c(F)cc3c1C[C@@](CN[C@H]1CC[C@H](C(=O)N4CCC(CC5CCN(C(=O)COc6ccc(N7CCC(=O)NC7=O)c(C)c6)CC5)CC4)CC1)(c1ccccc1)O3)[C@@H](O)[C@@H](C)C2 [KG-FP-003]
- KG-FP-003-AUC (LC1SQSF_LUNG, PR500): 1.00
- KG-FP-003-AUC (LCLC103H_LUNG, PR500): 0.80
- KG-FP-003-AUC (LI7_LIVER, PR500): 1.00
- KG-FP-003-AUC (LK2_LUNG, PR500): 0.99
- KG-FP-003-AUC (LMSU_STOMACH, PR500): 0.98
- KG-FP-003-AUC (LN18_CENTRAL_NERVOUS_SYSTEM, PR500): 0.93
- KG-FP-003-AUC (LN229_CENTRAL_NERVOUS_SYSTEM, PR500): 1.00
- KG-FP-003-AUC (LN382_CENTRAL_NERVOUS_SYSTEM, PR300): 1.00
- KG-FP-003-AUC (LN464_CENTRAL_NERVOUS_SYSTEM, PR300): 0.98
- KG-FP-003-AUC (LNCAPCLONEFGC_PROSTATE, PR500): 0.99
- KG-FP-003-AUC (LNZ308_CENTRAL_NERVOUS_SYSTEM, PR300): 0.83
- KG-FP-003-AUC (LOUNH91_LUNG, PR500): 0.97
- KG-FP-003-AUC (LOVO_LARGE_INTESTINE, PR500): 1.00
- KG-FP-003-AUC (LOXIMVI_SKIN, PR500): 0.84
- KG-FP-003-AUC (LPS141_SOFT_TISSUE, PR300): 1.00
- KG-FP-003-AUC (LS180_LARGE_INTESTINE, PR500): 0.99
- KG-FP-003-AUC (LS411N_LARGE_INTESTINE, PR500): 0.99
- KG-FP-003-AUC (LS513_LARGE_INTESTINE, PR500): 1.00
- KG-FP-003-AUC (LS1034_LARGE_INTESTINE, PR500): 0.93
- KG-FP-003-AUC (LS_AUTONOMIC_GANGLIA, PR300): 0.98
- KG-FP-003-AUC (LU99_LUNG, PR500): 0.89
- KG-FP-003-AUC (LUDLU1_LUNG, PR500): 1.00
- KG-FP-003-AUC (LXF289_LUNG, PR500): 0.44
- KG-FP-003-AUC (M059K_CENTRAL_NERVOUS_SYSTEM, PR300): 0.56
- KG-FP-003-AUC (MALME3M_SKIN, PR500): 0.93
- KG-FP-003-AUC (MB1_THYROID, PR300): 0.75
- KG-FP-003-AUC (MC116_HAEMATOPOIETIC_AND_LYMPHOID_TISSUE, PR300): 0.91
- KG-FP-003-AUC (MCAS_OVARY, PR500): 0.60
- KG-FP-003-AUC (MCC26_SKIN, PR300): 0.91
- KG-FP-003-AUC (MCC142_SKIN, PR300): 0.75
- KG-FP-003-AUC (MCF7_BREAST, PR500): 0.97
- KG-FP-003-AUC (MDAMB175VII_BREAST, PR500): 1.00
- KG-FP-003-AUC (MDAMB231_BREAST, PR500): 0.66
- KG-FP-003-AUC (MDAMB361_BREAST, PR300): 0.99
- KG-FP-003-AUC (MDAMB435S_SKIN, PR500): 0.92
- KG-FP-003-AUC (MDAMB436_BREAST, PR500): 0.91
- KG-FP-003-AUC (MDAMB453_BREAST, PR300): 0.97
- KG-FP-003-AUC (MDAMB468_BREAST, PR500): 0.75
- KG-FP-003-AUC (MDAPCA2B_PROSTATE, PR300): 0.89
- KG-FP-003-AUC (MEG01_HAEMATOPOIETIC_AND_LYMPHOID_TISSUE, PR300): 1.00
- KG-FP-003-AUC (MEL285_UVEA, PR300): 0.58
- KG-FP-003-AUC (MEL290_UVEA, PR300): 0.49
- KG-FP-003-AUC (MELHO_SKIN, PR500): 0.99
- KG-FP-003-AUC (MELJUSO_SKIN, PR500): 0.98
- KG-FP-003-AUC (MESSA_SOFT_TISSUE, PR500): 0.80
- KG-FP-003-AUC (MEWO_SKIN, PR500): 1.00
- KG-FP-003-AUC (MFE280_ENDOMETRIUM, PR500): 0.92
- KG-FP-003-AUC (MFE296_ENDOMETRIUM, PR500): 1.00
- KG-FP-003-AUC (MFE319_ENDOMETRIUM, PR500): 0.44
- KG-FP-003-AUC (MG63_BONE, PR300): 1.00
- KG-FP-003-AUC (MG63_BONE, PR500): 1.00
- KG-FP-003-AUC (MHHES1_BONE, PR300): 0.99
- KG-FP-003-AUC (MHHES1_BONE, PR500): 0.98
- KG-FP-003-AUC (MHHNB11_AUTONOMIC_GANGLIA, PR300): 1.00
- KG-FP-003-AUC (MIAPACA2_PANCREAS, PR500): 0.99
- KG-FP-003-AUC (MKN1_STOMACH, PR500): 0.77
- KG-FP-003-AUC (MKN7_STOMACH, PR500): 0.74
- KG-FP-003-AUC (MKN45_STOMACH, PR500): 0.89
- KG-FP-003-AUC (MKN74_STOMACH, PR500): 0.74
- KG-FP-003-AUC (MM1S_HAEMATOPOIETIC_AND_LYMPHOID_TISSUE, PR300): 0.92
- KG-FP-003-AUC (MM127_SKIN, PR300): 0.74
- KG-FP-003-AUC (MMNK1_BILIARY_TRACT, PR300): 0.57
- KG-FP-003-AUC (MOLM13_HAEMATOPOIETIC_AND_LYMPHOID_TISSUE, PR300): 0.88
- KG-FP-003-AUC (MOLM14_HAEMATOPOIETIC_AND_LYMPHOID_TISSUE, PR300): 0.98
- KG-FP-003-AUC (MOLP2_HAEMATOPOIETIC_AND_LYMPHOID_TISSUE, PR300): 0.98
- KG-FP-003-AUC (MOLT3_HAEMATOPOIETIC_AND_LYMPHOID_TISSUE, PR300): 0.92
- KG-FP-003-AUC (MOLT16_HAEMATOPOIETIC_AND_LYMPHOID_TISSUE, PR300): 0.75
- KG-FP-003-AUC (MONOMAC1_HAEMATOPOIETIC_AND_LYMPHOID_TISSUE, PR300): 0.82
- KG-FP-003-AUC (MONOMAC6_HAEMATOPOIETIC_AND_LYMPHOID_TISSUE, PR300): 0.91
- KG-FP-003-AUC (MON_SOFT_TISSUE, PR300): 0.53
- KG-FP-003-AUC (MON_SOFT_TISSUE, PR500): 1.00
- KG-FP-003-AUC (MP41_UVEA, PR300): 1.00
- KG-FP-003-AUC (MPP89_PLEURA, PR500): 0.77
- KG-FP-003-AUC (MS751_CERVIX, PR300): 0.98
- KG-FP-003-AUC (MSTO211H_PLEURA, PR500): 0.57
- KG-FP-003-AUC (NALM6_HAEMATOPOIETIC_AND_LYMPHOID_TISSUE, PR300): 0.75
- KG-FP-003-AUC (NB1_AUTONOMIC_GANGLIA, PR300): 0.99
- KG-FP-003-AUC (NB1_AUTONOMIC_GANGLIA, PR500): 0.99
- KG-FP-003-AUC (NB4_HAEMATOPOIETIC_AND_LYMPHOID_TISSUE, PR300): 0.79
- KG-FP-003-AUC (NCIH23_LUNG, PR500): 0.88
- KG-FP-003-AUC (NCIH28_PLEURA, PR500): 0.60
- KG-FP-003-AUC (NCIH157DM_LUNG, PR500): 0.99
- KG-FP-003-AUC (NCIH196_LUNG, PR300): 0.97
- KG-FP-003-AUC (NCIH226_LUNG, PR500): 0.46
- KG-FP-003-AUC (NCIH292_LUNG, PR500): 0.65
- KG-FP-003-AUC (NCIH322_LUNG, PR500): 0.97
- KG-FP-003-AUC (NCIH358_LUNG, PR500): 0.79
- KG-FP-003-AUC (NCIH441_LUNG, PR300): 0.98
- KG-FP-003-AUC (NCIH446_LUNG, PR500): 0.81
- KG-FP-003-AUC (NCIH460_LUNG, PR500): 0.99
- KG-FP-003-AUC (NCIH520_LUNG, PR500): 1.00
- KG-FP-003-AUC (NCIH522_LUNG, PR500): 0.84
- KG-FP-003-AUC (NCIH524_LUNG, PR300): 0.91
- KG-FP-003-AUC (NCIH596_LUNG, PR500): 0.93
- KG-FP-003-AUC (NCIH647_LUNG, PR300): 1.00
- KG-FP-003-AUC (NCIH650_LUNG, PR500): 0.98
